Experimental data: PubChem BioAssay AID602196 (INSERM, 2012)
Shown is one part, drawn at random, of about 23,000 reagents tested. In the full data, 455 (2%) were called active. 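Active includes both protection and sensitisation; some change values fall well beyond the stated -50 to +50 range.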 Unmarked entries are inactive. No sequences are given here. Not stated in the record: the amount of reagent.

- Aim: 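Genes whose knock-down alters cisplatin killing of lung cancer cells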
- Cells: human A549 lung cancer cells
- Knock-down reagent: siRNA pair against human genes
- Time to read-out: 48 h transfection before cisplatin; time from cisplatin to read-out not stated
- Conditions: cisplatin at a dose killing half of control-siRNA cells; exact dose and duration not given
- Measured: 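Shift in cisplatin death relative to control siRNA, from -50 (all cells die) to +50 (no cells die); siRNAs harmful on their own scored 0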
- Direction: two-siRNA summed score (-2 to +2): higher = both siRNAs protect from cisplatin killing; -2 means both sensitise; mean protection from cisplatin (shift in death) and protection from cisplatin (shift in death), siRNA C and protection from cisplatin (shift in death), siRNA D: higher = protection from cisplatin killing
- Active means: 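siRNAs harmful alone (LDH or WST-1) get 0; others get +1 for less and -1 for more cisplatin killing; genes are active when the two siRNAs give the same sign, summing to ±2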
- Calls: active = both siRNAs shift cisplatin killing the same way; inactive = no consistent shift, or siRNA harmful alone

| gene | two-siRNA summed score (-2 to +2) | mean protection from cisplatin (shift in death) (%) | protection from cisplatin (shift in death), siRNA C (%) | protection from cisplatin (shift in death), siRNA D (%) |
| --- | --- | --- | --- | --- |
| CHN2 | 0 | -3.3 | -14 | 7.5 |
| NPLOC4 | 0 | 11.9 | 4.5 | 19.4 |
| AEN | 0 | -2.6 | -11.6 | 6.4 |
| MGP | 0 | 3.3 | 10.3 | -3.6 |
| NRAP | -1 | -11.8 | -25.4 | 1.9 |
| OR6Y1 | 1 | 6.9 | -10.8 | 24.7 |
| RFX3 | 0 | -4.8 | 2.9 | -12.4 |
| CDCP2 | 1 | 12.6 | 20.5 | 4.6 |
| LOC133874 | 1 | 13 | 1.1 | 24.8 |
| THUMPD3-AS1 | 0 | 4.3 | 8.2 | 0.3 |
| LOC441652 | 0 | 7.7 | 5.5 | 10 |
| LOC441916 | 0 | 11.5 | 14 | 9.1 |
| SNN | 0 | -6.4 | -4.9 | -8 |
| LOC401178 | 0 | 6.8 | 15.2 | -1.6 |
| LOC400172 | 0 | 6.5 | 13.7 | -0.6 |
| METTL2A | -1 | -5.5 | -19.4 | 8.4 |
| STX5 | 0 | -3.1 | -17.5 | 11.2 |
| TNFRSF10A | 0 | 6.6 | 7.5 | 5.7 |
| OR51V1 | 0 | 1 | -16.6 | 18.6 |
| LILRA4 | 0 | -8.8 | -11.7 | -5.8 |
| CLCN1 | 0 | 8.7 | 11.4 | 6 |
| LIPH | -1 | 7.6 | 29.7 | -14.6 |
| RPS6KA2 | 0 | -3 | -4.8 | -1.3 |
| SLC12A5 | 0 | 7.8 | 6.4 | 9.2 |
| LOC442563 | 0 | 6.4 | 9.5 | 3.3 |
| DNAJB1 | 1 | 18.3 | 19.2 | 17.4 |
| SEH1L | 1 | 7.2 | 2.1 | 12.3 |
| XIRP2 | 1 | 5 | 9.7 | 0.2 |
| SLC24A1 | 0 | 1.7 | 0.3 | 3.1 |
| BKGD | 0 | 9.1 | 3.9 | 14.4 |
| MCL1 | -1 | -32.4 | -6.2 | -58.7 |
| OXR1 | 0 | -0.2 | -2.2 | 1.9 |
| MGAT4C | 1 | 12.3 | 4.9 | 19.8 |
| SGCA | -1 | -6.6 | -18.1 | 4.8 |
| CNPY3 | 0 | -2.2 | -15.4 | 11 |
| LOC152138 | 0 | 6.5 | 22 | -9 |
| POLE2 | 0 | 2.5 | 20.7 | -15.7 |
| MLKL | 0 | 25.4 | 44.3 | 6.4 |
| GALNT18 | 0 | 10.3 | 12.6 | 8.1 |
| CCDC102B | 0 | -0.5 | 10.2 | -11.2 |
| APEH | -1 | -18.6 | -1.4 | -35.8 |
| WDR35 | 1 | 6.4 | 19 | -6.2 |
| RASGRP4 | 0 | -4.7 | -0.1 | -9.4 |
| NANOS1 | -2 (active) | -11.4 | -15.3 | -7.4 |
| DKFZP564I122 | 0 | 2.6 | -8.3 | 13.5 |
| IL13RA1 | 0 | -15 | -17.9 | -12.2 |
| SLC16A5 | -1 | -12.5 | -4.9 | -20.1 |
| EIF3C | 0 | 3.6 | 6.8 | 0.5 |
| DKFZp686P0288 | 0 | 6.1 | 4.8 | 7.4 |
| LOC401732 | 0 | 7.6 | 14 | 1.2 |
| PLPBP | 1 | 7.1 | 19.3 | -5 |
| GPR183 | 1 | 9.8 | 1.7 | 18 |
| HLA-E | -1 | 13 | 33.5 | -7.5 |
| ZNF542P | 0 | 7.9 | 7.6 | 8.3 |
| LOC339970 | 0 | 21.5 | 14.9 | 28 |
| LOC441751 | 1 | 12.2 | -2.2 | 26.5 |
| LASP1 | -1 | -17.8 | -22.1 | -13.6 |

6 entries from above, set out differently.
{"gene": "LIPH", "two-siRNA summed score (-2 to +2)": -1, "mean protection from cisplatin (shift in death) (%)": 7.6, "protection from cisplatin (shift in death), siRNA C (%)": 29.7, "protection from cisplatin (shift in death), siRNA D (%)": -14.6}
{"gene": "RPS6KA2", "two-siRNA summed score (-2 to +2)": 0, "mean protection from cisplatin (shift in death) (%)": -3, "protection from cisplatin (shift in death), siRNA C (%)": -4.8, "protection from cisplatin (shift in death), siRNA D (%)": -1.3}
{"gene": "SLC12A5", "two-siRNA summed score (-2 to +2)": 0, "mean protection from cisplatin (shift in death) (%)": 7.8, "protection from cisplatin (shift in death), siRNA C (%)": 6.4, "protection from cisplatin (shift in death), siRNA D (%)": 9.2}
{"gene": "LOC442563", "two-siRNA summed score (-2 to +2)": 0, "mean protection from cisplatin (shift in death) (%)": 6.4, "protection from cisplatin (shift in death), siRNA C (%)": 9.5, "protection from cisplatin (shift in death), siRNA D (%)": 3.3}
{"gene": "DNAJB1", "two-siRNA summed score (-2 to +2)": 1, "mean protection from cisplatin (shift in death) (%)": 18.3, "protection from cisplatin (shift in death), siRNA C (%)": 19.2, "protection from cisplatin (shift in death), siRNA D (%)": 17.4}
{"gene": "SEH1L", "two-siRNA summed score (-2 to +2)": 1, "mean protection from cisplatin (shift in death) (%)": 7.2, "protection from cisplatin (shift in death), siRNA C (%)": 2.1, "protection from cisplatin (shift in death), siRNA D (%)": 12.3}
